Where a name gives a salt, the structure may show the parent alone. The list shows a part of the results. The calls rarely recur for the same compound in another form.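 Kinases, fused to nanoluciferase, were expressed in K562 cells; luminescence was measured every 4 h from 2 to 18 h as percent of control (DMSO = 100%, positive control = 0%). A time point is decreased if signal falls significantly (2 sigma). Hits were called by the authors by a rule that is not shown; the count of time points alone does not decide it.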
How the values were obtained:
Assay in all cases: kinase-Nluc reporter destabilization hit call (1 = scored as downregulated) (binary); higher = compound decreases kinase abundance
Conditions in all cases: K562; 2-18 h
[1] = system: BRAF_V600E
[2] = molecular target: BTK (UniProt Q06187)
[3] = molecular target: CAMK2A (UniProt Q9UQM7)
[4] = molecular target: CAMK2G (UniProt Q13555)
[5] = molecular target: CDK10 (UniProt Q15131)
[6] = molecular target: CDK2 (UniProt P24941)
[7] = molecular target: CDK3 (UniProt Q00526)
[8] = molecular target: CDK4 (UniProt P11802)
[9] = molecular target: CDK5 (UniProt Q00535)
[10] = molecular target: CDK6 (UniProt Q00534)
[11] = molecular target: CDK7 (UniProt P50613)
[12] = molecular target: CDK9 (UniProt P50750)
[13] = molecular target: CHEK2 (UniProt O96017)
[14] = molecular target: CSF1R (UniProt P07333)
[15] = molecular target: CSK (UniProt P41240)
[16] = molecular target: CSNK1A1 (UniProt P48729)
[17] = molecular target: CSNK1D (UniProt P48730)
[18] = molecular target: DDR1 (UniProt Q08345)
[19] = molecular target: DYRK1B (UniProt Q9Y463)
[20] = molecular target: DYRK2 (UniProt Q92630)

The chains behind the UniProt entries cited, without tags or fusion partners. Where a name states a change or a piece, a line headed by the entry shows the natural chain unless it says otherwise.
UniProt Q06187: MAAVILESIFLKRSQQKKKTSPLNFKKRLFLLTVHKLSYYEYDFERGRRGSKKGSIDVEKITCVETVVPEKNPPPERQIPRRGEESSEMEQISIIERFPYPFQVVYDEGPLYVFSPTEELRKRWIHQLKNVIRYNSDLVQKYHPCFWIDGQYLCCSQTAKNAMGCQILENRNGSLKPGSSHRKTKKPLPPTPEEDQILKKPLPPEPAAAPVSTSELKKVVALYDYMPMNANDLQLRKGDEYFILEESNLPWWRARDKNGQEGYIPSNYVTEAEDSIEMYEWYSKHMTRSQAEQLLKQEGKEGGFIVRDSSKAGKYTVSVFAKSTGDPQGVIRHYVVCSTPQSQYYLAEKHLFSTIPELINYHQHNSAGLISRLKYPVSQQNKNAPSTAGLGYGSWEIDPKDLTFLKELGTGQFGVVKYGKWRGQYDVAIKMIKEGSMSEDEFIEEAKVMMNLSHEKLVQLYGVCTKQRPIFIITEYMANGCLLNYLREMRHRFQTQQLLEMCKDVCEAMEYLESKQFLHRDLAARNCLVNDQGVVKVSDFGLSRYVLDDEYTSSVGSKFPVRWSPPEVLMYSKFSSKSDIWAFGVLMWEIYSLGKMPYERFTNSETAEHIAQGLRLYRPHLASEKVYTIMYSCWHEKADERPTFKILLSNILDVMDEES
UniProt Q9UQM7, whole entry: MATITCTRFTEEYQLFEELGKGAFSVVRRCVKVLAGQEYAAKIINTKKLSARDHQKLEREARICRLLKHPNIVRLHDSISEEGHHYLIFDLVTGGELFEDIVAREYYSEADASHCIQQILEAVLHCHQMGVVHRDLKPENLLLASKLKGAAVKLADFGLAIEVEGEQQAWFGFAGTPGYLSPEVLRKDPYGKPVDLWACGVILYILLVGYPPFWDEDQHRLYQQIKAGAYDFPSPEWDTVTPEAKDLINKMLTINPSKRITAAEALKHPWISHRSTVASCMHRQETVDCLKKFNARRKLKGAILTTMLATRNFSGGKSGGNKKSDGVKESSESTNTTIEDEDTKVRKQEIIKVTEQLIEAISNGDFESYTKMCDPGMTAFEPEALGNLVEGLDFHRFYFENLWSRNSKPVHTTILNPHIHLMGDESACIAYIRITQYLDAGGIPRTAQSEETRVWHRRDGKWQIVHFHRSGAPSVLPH
UniProt Q13555: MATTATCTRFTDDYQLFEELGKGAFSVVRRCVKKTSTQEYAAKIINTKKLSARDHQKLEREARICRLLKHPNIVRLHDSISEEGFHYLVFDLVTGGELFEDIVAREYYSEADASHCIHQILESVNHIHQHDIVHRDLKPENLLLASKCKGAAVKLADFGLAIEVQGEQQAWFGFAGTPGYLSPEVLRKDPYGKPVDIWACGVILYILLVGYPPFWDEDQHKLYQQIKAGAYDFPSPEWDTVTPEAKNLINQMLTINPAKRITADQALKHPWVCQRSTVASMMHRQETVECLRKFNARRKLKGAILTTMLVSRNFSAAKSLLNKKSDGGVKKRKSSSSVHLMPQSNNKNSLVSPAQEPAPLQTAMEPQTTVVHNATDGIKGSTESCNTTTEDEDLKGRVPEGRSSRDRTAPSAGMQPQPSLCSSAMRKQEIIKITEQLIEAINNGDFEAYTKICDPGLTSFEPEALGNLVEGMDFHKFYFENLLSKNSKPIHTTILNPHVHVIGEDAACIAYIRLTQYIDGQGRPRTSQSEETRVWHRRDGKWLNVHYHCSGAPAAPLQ
UniProt Q00526: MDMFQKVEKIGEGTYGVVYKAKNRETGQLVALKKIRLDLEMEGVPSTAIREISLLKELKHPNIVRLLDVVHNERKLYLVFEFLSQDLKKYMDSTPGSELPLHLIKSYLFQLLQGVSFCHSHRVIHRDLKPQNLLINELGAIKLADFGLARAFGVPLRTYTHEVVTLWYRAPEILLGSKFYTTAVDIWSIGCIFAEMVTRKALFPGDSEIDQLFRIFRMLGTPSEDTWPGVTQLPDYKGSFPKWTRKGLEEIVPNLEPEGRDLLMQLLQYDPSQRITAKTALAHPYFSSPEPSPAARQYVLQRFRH
UniProt Q00534, whole entry: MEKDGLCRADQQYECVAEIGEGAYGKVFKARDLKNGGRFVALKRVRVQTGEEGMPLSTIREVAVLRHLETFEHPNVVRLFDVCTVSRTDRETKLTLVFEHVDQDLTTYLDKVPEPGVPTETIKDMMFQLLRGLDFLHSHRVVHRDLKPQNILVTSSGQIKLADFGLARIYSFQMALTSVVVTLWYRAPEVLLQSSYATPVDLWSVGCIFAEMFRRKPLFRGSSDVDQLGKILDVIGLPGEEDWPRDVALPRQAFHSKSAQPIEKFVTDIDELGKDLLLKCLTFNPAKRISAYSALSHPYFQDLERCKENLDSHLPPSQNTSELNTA
UniProt P50613: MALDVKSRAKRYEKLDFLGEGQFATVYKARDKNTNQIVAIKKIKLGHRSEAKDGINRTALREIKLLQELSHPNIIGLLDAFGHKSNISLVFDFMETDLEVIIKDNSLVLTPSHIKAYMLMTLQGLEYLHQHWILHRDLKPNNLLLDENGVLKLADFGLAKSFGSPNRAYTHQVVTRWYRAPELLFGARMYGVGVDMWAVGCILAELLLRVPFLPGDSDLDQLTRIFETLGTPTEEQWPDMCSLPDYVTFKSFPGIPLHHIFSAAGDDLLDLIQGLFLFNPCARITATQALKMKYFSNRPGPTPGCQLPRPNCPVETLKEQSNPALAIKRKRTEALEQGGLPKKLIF
UniProt P50750, whole entry: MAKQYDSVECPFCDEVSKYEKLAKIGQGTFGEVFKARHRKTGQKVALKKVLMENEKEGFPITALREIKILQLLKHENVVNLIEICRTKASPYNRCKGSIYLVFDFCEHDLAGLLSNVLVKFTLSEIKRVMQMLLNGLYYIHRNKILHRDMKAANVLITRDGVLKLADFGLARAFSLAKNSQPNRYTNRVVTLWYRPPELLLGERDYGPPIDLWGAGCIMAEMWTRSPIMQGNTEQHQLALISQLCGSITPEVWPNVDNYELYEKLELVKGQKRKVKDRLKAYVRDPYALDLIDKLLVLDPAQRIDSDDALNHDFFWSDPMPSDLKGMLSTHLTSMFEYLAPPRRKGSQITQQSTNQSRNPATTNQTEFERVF
UniProt O96017, whole entry: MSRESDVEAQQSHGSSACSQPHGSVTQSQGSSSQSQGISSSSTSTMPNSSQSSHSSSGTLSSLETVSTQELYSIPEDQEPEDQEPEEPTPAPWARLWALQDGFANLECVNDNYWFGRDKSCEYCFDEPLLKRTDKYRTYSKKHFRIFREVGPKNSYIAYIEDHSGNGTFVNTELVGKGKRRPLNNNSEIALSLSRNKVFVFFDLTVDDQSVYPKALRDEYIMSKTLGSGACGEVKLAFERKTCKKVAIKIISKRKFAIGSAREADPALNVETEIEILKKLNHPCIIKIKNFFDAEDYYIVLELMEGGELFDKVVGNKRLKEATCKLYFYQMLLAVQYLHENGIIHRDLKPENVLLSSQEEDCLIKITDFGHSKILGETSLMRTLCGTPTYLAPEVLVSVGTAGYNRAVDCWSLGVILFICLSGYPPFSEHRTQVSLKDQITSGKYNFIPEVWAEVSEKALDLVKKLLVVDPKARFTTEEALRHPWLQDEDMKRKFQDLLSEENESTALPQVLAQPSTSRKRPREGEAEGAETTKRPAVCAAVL
UniProt P07333, whole entry: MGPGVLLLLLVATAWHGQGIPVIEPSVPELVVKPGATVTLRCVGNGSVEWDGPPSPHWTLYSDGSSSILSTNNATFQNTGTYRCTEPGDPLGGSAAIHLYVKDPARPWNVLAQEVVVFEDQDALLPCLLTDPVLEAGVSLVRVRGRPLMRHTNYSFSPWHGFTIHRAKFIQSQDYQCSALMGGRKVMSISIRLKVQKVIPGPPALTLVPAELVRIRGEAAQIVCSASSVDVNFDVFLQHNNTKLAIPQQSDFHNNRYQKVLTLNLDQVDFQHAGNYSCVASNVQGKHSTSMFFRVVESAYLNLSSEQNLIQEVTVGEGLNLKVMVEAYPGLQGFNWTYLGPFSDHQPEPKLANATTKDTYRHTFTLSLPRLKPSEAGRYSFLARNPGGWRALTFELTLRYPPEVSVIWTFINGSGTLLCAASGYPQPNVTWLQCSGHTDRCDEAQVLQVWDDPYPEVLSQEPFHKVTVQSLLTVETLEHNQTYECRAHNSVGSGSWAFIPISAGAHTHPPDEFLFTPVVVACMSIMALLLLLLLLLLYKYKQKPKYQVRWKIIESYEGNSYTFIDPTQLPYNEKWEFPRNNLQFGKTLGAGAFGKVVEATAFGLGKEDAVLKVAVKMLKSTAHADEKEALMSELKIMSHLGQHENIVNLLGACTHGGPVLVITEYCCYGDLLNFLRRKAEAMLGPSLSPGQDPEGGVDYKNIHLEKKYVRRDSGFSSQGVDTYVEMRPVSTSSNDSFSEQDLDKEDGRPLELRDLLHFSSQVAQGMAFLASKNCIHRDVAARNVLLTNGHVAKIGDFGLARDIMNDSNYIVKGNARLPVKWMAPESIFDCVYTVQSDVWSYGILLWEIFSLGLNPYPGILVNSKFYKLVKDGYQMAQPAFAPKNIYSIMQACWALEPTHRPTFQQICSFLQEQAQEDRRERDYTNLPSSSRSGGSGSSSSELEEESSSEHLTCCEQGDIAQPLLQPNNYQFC
UniProt P41240: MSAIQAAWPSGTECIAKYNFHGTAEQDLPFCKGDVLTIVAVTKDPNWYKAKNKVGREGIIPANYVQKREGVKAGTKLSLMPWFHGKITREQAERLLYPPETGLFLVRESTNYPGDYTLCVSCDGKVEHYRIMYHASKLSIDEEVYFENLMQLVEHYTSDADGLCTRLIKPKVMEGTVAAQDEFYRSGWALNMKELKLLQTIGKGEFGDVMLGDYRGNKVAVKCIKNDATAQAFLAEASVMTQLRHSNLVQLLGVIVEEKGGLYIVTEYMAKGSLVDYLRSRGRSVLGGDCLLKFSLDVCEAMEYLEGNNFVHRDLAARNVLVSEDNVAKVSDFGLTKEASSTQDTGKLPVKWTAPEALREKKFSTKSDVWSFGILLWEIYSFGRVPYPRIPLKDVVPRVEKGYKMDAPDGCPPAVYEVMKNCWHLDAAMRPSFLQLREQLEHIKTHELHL
UniProt P48729: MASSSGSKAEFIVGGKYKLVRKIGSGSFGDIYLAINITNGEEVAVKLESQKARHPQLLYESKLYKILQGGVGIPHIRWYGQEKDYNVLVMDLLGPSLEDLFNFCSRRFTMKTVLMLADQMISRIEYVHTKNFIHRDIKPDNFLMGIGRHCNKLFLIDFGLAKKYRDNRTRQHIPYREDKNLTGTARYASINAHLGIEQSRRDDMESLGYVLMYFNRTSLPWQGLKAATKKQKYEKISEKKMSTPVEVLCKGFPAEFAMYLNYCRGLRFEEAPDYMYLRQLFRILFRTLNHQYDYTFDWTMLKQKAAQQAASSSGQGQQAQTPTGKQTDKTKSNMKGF
UniProt P48730: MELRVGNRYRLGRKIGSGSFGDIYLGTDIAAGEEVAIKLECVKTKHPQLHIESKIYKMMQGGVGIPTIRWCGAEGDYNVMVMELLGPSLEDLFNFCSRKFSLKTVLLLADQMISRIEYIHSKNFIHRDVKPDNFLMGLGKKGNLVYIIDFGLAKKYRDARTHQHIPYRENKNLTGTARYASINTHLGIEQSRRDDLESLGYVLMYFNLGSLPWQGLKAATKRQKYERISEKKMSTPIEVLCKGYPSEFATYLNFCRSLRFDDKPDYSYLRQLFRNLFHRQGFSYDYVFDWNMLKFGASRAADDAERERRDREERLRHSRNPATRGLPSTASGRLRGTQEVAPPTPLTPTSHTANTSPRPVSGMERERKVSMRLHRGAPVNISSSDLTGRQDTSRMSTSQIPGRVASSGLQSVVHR
UniProt Q9Y463, whole entry, looked up: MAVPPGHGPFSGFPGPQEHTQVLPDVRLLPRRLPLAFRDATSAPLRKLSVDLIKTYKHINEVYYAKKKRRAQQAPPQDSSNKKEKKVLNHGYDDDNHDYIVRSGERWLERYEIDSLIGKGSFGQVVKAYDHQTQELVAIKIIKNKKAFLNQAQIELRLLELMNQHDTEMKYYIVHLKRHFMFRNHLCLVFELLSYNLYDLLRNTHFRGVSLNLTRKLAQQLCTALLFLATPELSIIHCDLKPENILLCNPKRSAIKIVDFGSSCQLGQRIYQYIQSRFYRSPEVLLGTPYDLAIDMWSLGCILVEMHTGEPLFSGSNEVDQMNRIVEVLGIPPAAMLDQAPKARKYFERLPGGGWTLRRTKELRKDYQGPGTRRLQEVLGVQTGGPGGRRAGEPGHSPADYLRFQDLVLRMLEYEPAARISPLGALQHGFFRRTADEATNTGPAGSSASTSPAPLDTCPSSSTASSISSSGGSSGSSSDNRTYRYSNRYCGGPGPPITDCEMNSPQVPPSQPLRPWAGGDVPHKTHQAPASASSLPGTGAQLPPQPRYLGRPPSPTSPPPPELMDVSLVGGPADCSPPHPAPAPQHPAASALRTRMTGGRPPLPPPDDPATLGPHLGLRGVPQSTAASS

Measured: kinase-Nluc reporter destabilization hit call

O=c1cc(N2CCOCC2)nc2c3ccccc3ccn12 [Compound 401] (10 µM)
inactive: [1] 0 | [2] 0 | [3] 0 | [4] 0 | [5] 0 | [6] 0 | [7] 0 | [8] 0 | [9] 0 | [10] 0 | [11] 0 | [12] 0 | [13] 0 | [14] 0 | [15] 0 | [16] 0 | [17] 0 | [18] 0 | [19] 0 | [20] 0

Cc1ccc(C(=O)Nc2sc(Nc3ccccc3)nc2C(N)=O)cc1 (10 µM)
inactive: [1] 0 | [2] 0 | [3] 0 | [4] 0 | [5] 0 | [6] 0 | [7] 0 | [8] 0 | [9] 0 | [10] 0 | [11] 0 | [12] 0 | [13] 0 | [14] 0 | [15] 0 | [16] 0 | [17] 0 | [18] 0 | [19] 0 | [20] 0

Cn1cnc([N+](=O)[O-])c1C[N+](C)(C)C/C=C/C(=O)Nc1cc2c(Nc3ccc(Cl)c(Br)c3)ncnc2cn1 [Tarloxotinib (bromide)] (10 µM)
inactive: [1] 0 | [2] 0 | [3] 0 | [4] 0 | [5] 0 | [6] 0 | [7] 0 | [8] 0 | [9] 0 | [10] 0 | [11] 0 | [12] 0 | [13] 0 | [14] 0 | [15] 0 | [16] 0 | [17] 0 | [18] 0 | [19] 0 | [20] 0

Cn1cc2cc(C(F)(F)c3nnc4ccc(-c5cnn(C6CC6)c5)nn34)c(F)cc2n1 [Bozitinib] (10 µM)
inactive: [1] 0 | [2] 0 | [3] 0 | [4] 0 | [5] 0 | [6] 0 | [7] 0 | [8] 0 | [9] 0 | [10] 0 | [11] 0 | [12] 0 | [13] 0 | [14] 0 | [15] 0 | [16] 0 | [17] 0 | [18] 0 | [19] 0 | [20] 0

CC(C)(C[C@H](N)C(=O)O)C(F)F [NV-5138 (hydrochloride)] (10 µM)
inactive: [1] 0 | [2] 0 | [3] 0 | [4] 0 | [5] 0 | [6] 0 | [7] 0 | [8] 0 | [9] 0 | [10] 0 | [11] 0 | [12] 0 | [13] 0 | [14] 0 | [15] 0 | [16] 0 | [17] 0 | [18] 0 | [19] 0 | [20] 0

C=CCc1ccc(O)c(-c2ccc(O)c(CC=C)c2)c1 [Honokiol] (10 µM)
inactive: [1] 0 | [2] 0 | [3] 0 | [4] 0 | [5] 0 | [6] 0 | [7] 0 | [8] 0 | [9] 0 | [10] 0 | [11] 0 | [12] 0 | [13] 0 | [14] 0 | [15] 0 | [16] 0 | [17] 0 | [18] 0 | [19] 0 | [20] 0

CC(C)S(=O)(=O)c1ccc2nccc(Nc3ccc4scnc4c3)c2c1 (10 µM)
inactive: [1] 0 | [2] 0 | [3] 0 | [4] 0 | [5] 0 | [6] 0 | [7] 0 | [8] 0 | [9] 0 | [10] 0 | [11] 0 | [12] 0 | [13] 0 | [14] 0 | [15] 0 | [16] 0 | [17] 0 | [18] 0 | [19] 0 | [20] 0

C=CC(=O)Nc1cc(-n2c(=O)ccc3cnc4ccc(-c5ccc(NS(C)(=O)=O)cc5)cc4c32)ccc1C (10 µM)
inactive: [1] 0 | [2] 0 | [3] 0 | [4] 0 | [5] 0 | [6] 0 | [7] 0 | [8] 0 | [9] 0 | [10] 0 | [11] 0 | [12] 0 | [13] 0 | [14] 0 | [15] 0 | [16] 0 | [17] 0 | [18] 0 | [19] 0 | [20] 0

COc1cc2ncnc(-n3nc(-c4ccccn4)nc3N)c2cc1OC (10 µM)
inactive: [1] 0 | [2] 0 | [3] 0 | [4] 0 | [5] 0 | [6] 0 | [7] 0 | [8] 0 | [9] 0 | [10] 0 | [11] 0 | [12] 0 | [13] 0 | [14] 0 | [15] 0 | [16] 0 | [17] 0 | [18] 0 | [19] 0 | [20] 0

Retrieved one by one from the entries so far, two records:
C=CC(=O)Nc1cc(-n2c(=O)ccc3cnc4ccc(-c5ccc(NS(C)(=O)=O)cc5)cc4c32)ccc1C (10 µM)
inactive: [1] 0 | [2] 0 | [3] 0 | [4] 0 | [5] 0 | [6] 0 | [7] 0 | [8] 0 | [9] 0 | [10] 0 | [11] 0 | [12] 0 | [13] 0 | [14] 0 | [15] 0 | [16] 0 | [17] 0 | [18] 0 | [19] 0 | [20] 0

CC(C)(C[C@H](N)C(=O)O)C(F)F [NV-5138 (hydrochloride)] (10 µM)
inactive: [1] 0 | [2] 0 | [3] 0 | [4] 0 | [5] 0 | [6] 0 | [7] 0 | [8] 0 | [9] 0 | [10] 0 | [11] 0 | [12] 0 | [13] 0 | [14] 0 | [15] 0 | [16] 0 | [17] 0 | [18] 0 | [19] 0 | [20] 0

Next results:

CC(C)(C)n1nc(Cc2ccccc2O)c2c(N)ncnc21 (10 µM)
inactive: [1] 0 | [2] 0 | [3] 0 | [4] 0 | [5] 0 | [6] 0 | [7] 0 | [8] 0 | [9] 0 | [10] 0 | [11] 0 | [12] 0 | [13] 0 | [14] 0 | [15] 0 | [16] 0 | [17] 0 | [18] 0 | [19] 0 | [20] 0

Cc1ccc2c(Nc3cccc(Cl)c3F)nccc2c1NC(=O)c1csc2c(N)ncnc12 [Belvarafenib] (10 µM)
inactive: [1] 0 | [2] 0 | [3] 0 | [4] 0 | [5] 0 | [6] 0 | [7] 0 | [8] 0 | [9] 0 | [10] 0 | [11] 0 | [12] 0 | [13] 0 | [14] 0 | [15] 0 | [16] 0 | [17] 0 | [18] 0 | [19] 0 | [20] 0

CC(C)N1CCN(c2ccc(Nc3ncc4cc5n(c4n3)C3(CCCCC3)CNC5=O)nc2)CC1 [Lerociclib (dihydrochloride)] (2 µM)
inactive: [1] 0 | [2] 0 | [3] 0 | [4] 0 | [5] 0 | [6] 0 | [7] 0 | [8] 0 | [9] 0 | [10] 0 | [11] 0 | [12] 0 | [13] 0 | [14] 0 | [15] 0 | [16] 0 | [17] 0 | [18] 0 | [19] 0 | [20] 0

CC(C)=CCc1c(-c2ccc(O)cc2O)oc2c3c(cc(O)c2c1=O)OC(C)(C)C=C3 [Morusin] (2.5 µM)
inactive: [1] 0 | [2] 0 | [3] 0 | [4] 0 | [5] 0 | [6] 0 | [7] 0 | [8] 0 | [9] 0 | [10] 0 | [11] 0 | [12] 0 | [13] 0 | [14] 0 | [15] 0 | [16] 0 | [17] 0 | [18] 0 | [19] 0 | [20] 0

c1ccc(-c2nc(=NCCN3CCOCC3)sn2-c2ccccc2)cc1 [VP3.15 (dihydrobromide)] (10 µM)
inactive: [1] 0 | [2] 0 | [3] 0 | [4] 0 | [5] 0 | [6] 0 | [7] 0 | [8] 0 | [9] 0 | [10] 0 | [11] 0 | [12] 0 | [13] 0 | [14] 0 | [15] 0 | [16] 0 | [17] 0 | [18] 0 | [19] 0 | [20] 0

C[C@@H]1O[C@@H](O[C@@H]2[C@@H](O)[C@H](OCCc3ccc(O)c(O)c3)O[C@H](CO)[C@H]2OC(=O)/C=C/c2ccc(O)c(O)c2)[C@H](O)[C@H](O)[C@H]1O [Verbascoside] (10 µM)
inactive: [1] 0 | [2] 0 | [3] 0 | [4] 0 | [5] 0 | [6] 0 | [7] 0 | [8] 0 | [9] 0 | [10] 0 | [11] 0 | [12] 0 | [13] 0 | [14] 0 | [15] 0 | [16] 0 | [17] 0 | [18] 0 | [19] 0 | [20] 0

Nc1cccc(-c2cc3c(Oc4cccc(O)c4)ncnc3[nH]2)c1 (10 µM)
inactive: [1] 0 | [2] 0 | [3] 0 | [4] 0 | [5] 0 | [6] 0 | [7] 0 | [8] 0 | [9] 0 | [10] 0 | [11] 0 | [12] 0 | [13] 0 | [14] 0 | [15] 0 | [16] 0 | [17] 0 | [18] 0 | [19] 0 | [20] 0

O=[N+]([O-])c1ccc2c(c1)S(=O)(=O)C=C2 [Stattic] (2.5 µM)
inactive: [1] 0 | [2] 0 | [3] 0 | [4] 0 | [5] 0 | [6] 0 | [7] 0 | [8] 0 | [9] 0 | [10] 0 | [11] 0 | [12] 0 | [13] 0 | [14] 0 | [15] 0 | [16] 0 | [17] 0 | [18] 0 | [19] 0 | [20] 0

CNc1cc(Nc2cccn(-c3ccccn3)c2=O)nn2c(C(=O)N[C@@H]3C[C@@H]3F)cnc12 (2.5 µM)
inactive: [1] 0 | [2] 0 | [3] 0 | [4] 0 | [5] 0 | [6] 0 | [7] 0 | [8] 0 | [9] 0 | [10] 0 | [11] 0 | [12] 0 | [13] 0 | [14] 0 | [15] 0 | [16] 0 | [17] 0 | [18] 0 | [19] 0 | [20] 0

Reference: the supplement of paper PMC12823440, “Inhibitors supercharge kinase turnover through native proteolytic circuits” (Nature, 2025)
